2 molecules from patent US20200291128A1 (ABEXXA BIOLOGICS, published 2020) can be followed below.

Sequences of proteins named here, by UniProt entry; tags and fusion partners are left off. A change or cut given only in a name is not applied to a line headed by its entry.
UniProt P13747: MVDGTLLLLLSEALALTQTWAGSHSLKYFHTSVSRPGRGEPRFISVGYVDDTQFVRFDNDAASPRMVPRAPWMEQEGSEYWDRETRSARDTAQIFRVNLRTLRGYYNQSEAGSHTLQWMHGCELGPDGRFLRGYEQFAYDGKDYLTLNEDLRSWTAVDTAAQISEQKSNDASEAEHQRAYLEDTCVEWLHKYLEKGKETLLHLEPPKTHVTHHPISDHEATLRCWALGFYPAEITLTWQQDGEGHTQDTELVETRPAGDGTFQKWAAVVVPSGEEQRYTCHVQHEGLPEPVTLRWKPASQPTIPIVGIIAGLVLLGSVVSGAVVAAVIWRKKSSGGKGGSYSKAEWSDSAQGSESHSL
UniProt P61769: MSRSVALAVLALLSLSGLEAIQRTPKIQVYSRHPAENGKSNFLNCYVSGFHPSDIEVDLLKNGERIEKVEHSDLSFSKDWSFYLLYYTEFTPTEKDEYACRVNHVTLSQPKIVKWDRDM

These are yes or no findings as the source states them, for the method shown. Some results given as binding are weak or reduced against the parent protein; the word gives no strength.

The target in assay [1] is T1, HLA-E protein as expressed in human tumor tissue (bound peptide not specified) (human) (UniProt P13747+P61769). The assay is described as follows: elution from affinity-purified HLA-E, LC/MS/MS against synthetic peptide.
The target in assay [2] is T1, HLA-E protein as expressed in human tumor tissue (bound peptide not specified) (human). In words: elution from HLA-E captured on a 4D12 column, LC/MS/MS.

Take GLADKVYFL [peptide … (CAD protein 445-453)]: the binding entry in assay [1] and in assay [2] was “binds” each time.
With MLALLTQVA [peptide … (HEXB protein 26-34)], in assay [2], the binding result is “binds”.
